This is one part of the list.

Chains of the proteins cited; added tags and fusions are not shown.
UniProt Q0JBA9, entry or part of it: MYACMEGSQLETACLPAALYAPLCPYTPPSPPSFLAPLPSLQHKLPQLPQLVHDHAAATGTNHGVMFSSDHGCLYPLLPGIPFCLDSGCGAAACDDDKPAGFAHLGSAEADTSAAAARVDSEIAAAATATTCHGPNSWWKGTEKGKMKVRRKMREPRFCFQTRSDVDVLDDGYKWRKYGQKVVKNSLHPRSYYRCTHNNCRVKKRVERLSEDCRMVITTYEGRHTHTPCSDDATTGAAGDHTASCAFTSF

This assay has as its target OsWRKY34 (Oryza sativa, UniProt Q0JBA9 1-250). The assay can be described thus: protein-binding microarray (RPBM); PBS, 2% BSA, 51.3 ng/ul salmon testes DNA, 50 uM zinc acetate, 200 nM TF, 25 C, 1 h; high values mean tight binding. The note with it: protein: recombinant; tags: N-terminal polyhistidine and DsRed monomer fusion (pET32a); label: CyDye5-dUTP incorporated in the synthesized complementary strand; 3' TTTTT single-stranded linker to array surface; dsDNA, one strand shown. An outline of the steps: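 For the binding signal, per-feature fluorescence intensity was read in arbitrary units on an Axon 4000B scanner. Before scanning, a 2% BSA-blocked custom Agilent array made double-stranded with Cy5-dUTP was washed after 1 h at 25 °C with 200 nM protein and 50 µM zinc acetate. The proteins were Ni–NTA-purified transcription factors with N-terminal polyhistidine and DsRed fusions, expressed in E. coli BL21-CodonPlus.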
On to “GTCCATTGTTTTTTTCTTTTTGGATTTTCTCCTTTTCTTACGGAGTCACCTAGTGCAG”, for which the binding signal was 10700 fluorescence intensity (a.u.).

For “GATGTGACCCTTCTTCTACCTCGCGACCTCTCATCTATCGCGGAGTCACCTAGTGCAG”, the binding signal is 10400 fluorescence intensity (a.u.).

As to “CCATCCATCCCTCCAGCGAGCAGGGCGGGCGCCGTCGTTCCGGAGTCACCTAGTGCAG”, the binding signal is 8340 fluorescence intensity (a.u.).

As to “GTAGTGATTCTTGCTCGCTTTGTTTCTCTGAATCCTTGCACGGAGTCACCTAGTGCAG”, the binding signal is 10200 fluorescence intensity (a.u.).

On to “GGGTGAGTGCGCGTGCGTTGTGAGTGTTTGTATTGTACTGCGGAGTCACCTAGTGCAG”, for which the binding signal is 9790 fluorescence intensity (a.u.).

Turning to “GAAGAAGAGGCGGGCGGGCGGGCGCGGGGTGAAGGCAGGACGGAGTCACCTAGTGCAG”, the binding signal was 11800 fluorescence intensity (a.u.).

Regarding “AGTTCTTCTCCACCACAAGTTTCGCGCGCTGCTCGCTCGCCGGAGTCACCTAGTGCAG”, the binding signal was 8480 fluorescence intensity (a.u.).

On to “TGCCCGCGTCTTCGCCGCTCGCCGCCGTCTCTGCTTGCCTCGGAGTCACCTAGTGCAG”, for which the binding signal was 9960 fluorescence intensity (a.u.).

For the sequence “CATCAAGTCATCAACAGTCACATGCCCTGCTAGCTAGTACCGGAGTCACCTAGTGCAG”, the binding signal was 8140 fluorescence intensity (a.u.).

In the case of “ACATGGCCATATTATAATGTTGGTAACACACGTGAGGTTGCGGAGTCACCTAGTGCAG”, the binding signal was 8470 fluorescence intensity (a.u.).

Regarding “AACCTGATGTTTCTTTTTTTTTCTTTTGACTTCTAACTTGCGGAGTCACCTAGTGCAG”, the binding signal was 8780 fluorescence intensity (a.u.).

With “TGGGGTATTCTAGTATTCTGGTGTTTGTATTGATATATGTCGGAGTCACCTAGTGCAG”, the binding signal was 10600 fluorescence intensity (a.u.).

As for “TCACTGTCTCTCACCCTCCCAACGCTTAGACATTTCAACGCGGAGTCACCTAGTGCAG”, the binding signal was 8070 fluorescence intensity (a.u.).

“ATTGTCTTGGCTGCTGTCTTTATAGTATTCACTCATCTGCCGGAGTCACCTAGTGCAG”: the binding signal is 18500 fluorescence intensity (a.u.).

For the sequence “GAGAGAGAGGAAATGCGGGCGGGGTGGCGGCCATGGCCAACGGAGTCACCTAGTGCAG”, the binding signal was 10800 fluorescence intensity (a.u.).

For “CAGATGGCGGCGCTGGTGTGGGAGGGAGAAGGTGCGGGGACGGAGTCACCTAGTGCAG”, the binding signal is 9040 fluorescence intensity (a.u.).

Turning to “GTACTGTTTTTATGCTCTTGTTATATAATTGTCATGATGACGGAGTCACCTAGTGCAG”, the binding signal was 8740 fluorescence intensity (a.u.).

Turning to “AACTTCCTCGATAGACATTCCACACATGTTGTTCATGTTACGGAGTCACCTAGTGCAG”, the binding signal was 9230 fluorescence intensity (a.u.).

As to “AAAACACAACTTTGACTTCTTGTTTTATAAAAATATTTATCGGAGTCACCTAGTGCAG”, the binding signal is 8720 fluorescence intensity (a.u.).

In the case of “TCAGTAAGCATTTTTGTGGTCCTTTACTCCTTACTAATCTCGGAGTCACCTAGTGCAG”, the binding signal was 10900 fluorescence intensity (a.u.).

Regarding “GGGTGGTGATGCATGTGCTTCTACAATCATGTATTGGTTACGGAGTCACCTAGTGCAG”, the binding signal was 9440 ± 630 fluorescence intensity (a.u.).

As for “TTTAATTTAGTCTCATTGCTTCCGATCTATGTAAACAATACGGAGTCACCTAGTGCAG”, the binding signal was 8360 fluorescence intensity (a.u.).

For the sequence “AACTTCTCTTCTAATTTTCTCCGAAACTACTGCTCCAATGCGGAGTCACCTAGTGCAG”, the binding signal was 8510 fluorescence intensity (a.u.).

Take “AGCGCCTCGGGCGCACGGGAGTGGCGTGGTGTGGTGGGGTCGGAGTCACCTAGTGCAG”: the binding signal is 8170 fluorescence intensity (a.u.).

Consider “CGTGCAGTTGTATGATTTTCGGGTCCGGTTTTCCTTATAACGGAGTCACCTAGTGCAG”, for which the binding signal is 11200 fluorescence intensity (a.u.).

Consider “CTCTCTCTCTCATTCTCTCTCTCTCTCTCTGCCCCTTTTCCGGAGTCACCTAGTGCAG”, for which the binding signal was 8200 fluorescence intensity (a.u.).

Take “CAAAACTGCCACCATCCACCCAGAACTGGGTCATCATCACCGGAGTCACCTAGTGCAG”: the binding signal was 8130 fluorescence intensity (a.u.).

For the sequence “GTGTCTGTTTGTGTGTGTAAATCCGATATTACCTGTAATCCGGAGTCACCTAGTGCAG”, the binding signal was 9760 fluorescence intensity (a.u.).

As for “TTGCAGTTTTGTTTTGCTGCAGGAAAATTCGGATTTGTTTCGGAGTCACCTAGTGCAG”, the binding signal was 8240 fluorescence intensity (a.u.).

In the case of “AGGCTTTCACATTTAACTATTTTATTTTGTCGACATCGTTCGGAGTCACCTAGTGCAG”, the binding signal was 9090 fluorescence intensity (a.u.).

For “TCCCAATCTTCTGTTATTTATTTATTTTCTTGTTAAAATTCGGAGTCACCTAGTGCAG”, the binding signal is 9310 fluorescence intensity (a.u.).

For the sequence “ACCGCAGCCCATGTCCTTTTCCGTCATTTCACTTCAACTCCGGAGTCACCTAGTGCAG”, the binding signal was 10800 fluorescence intensity (a.u.).

Regarding “CTATCTCTCACACTGATCCAGGCTCTCTCCACTACTATATCGGAGTCACCTAGTGCAG”, the binding signal was 8300 fluorescence intensity (a.u.).

For the sequence “TCTTTTGGTTTACAACACTTTGTATGCTAGCATTATTTTGCGGAGTCACCTAGTGCAG”, the binding signal was 8880 fluorescence intensity (a.u.).

Turning to “TTTTTTTGCGGGGAGACATGTTACATATTTGCTTAGGTTACGGAGTCACCTAGTGCAG”, the binding signal was 8620 fluorescence intensity (a.u.).

In the case of “TCTCAACGACGAAATTCCCTTATCAACTCGGATTCTTTCTCGGAGTCACCTAGTGCAG”, the binding signal was 9620 fluorescence intensity (a.u.).

For the sequence “GGCTGGCGTCCGCGCTTTTCCAGCACCAACTCTCGTACGCCGGAGTCACCTAGTGCAG”, the binding signal is 9320 fluorescence intensity (a.u.).

“ATTCACTCTTTCATCACTCACTTTCTCTCTACAGCGGGCACGGAGTCACCTAGTGCAG”: the binding signal is 8910 fluorescence intensity (a.u.).

“AAGTCTTCAGGCTTAGCTCGCTTTTATCTTTTTCCGCTGCCGGAGTCACCTAGTGCAG”: the binding signal is 8120 fluorescence intensity (a.u.).

“GCCCGGCCCAGTAGATACCACCACCTCACACTCCATTCGCCGGAGTCACCTAGTGCAG”: the binding signal is 9860 fluorescence intensity (a.u.).

As for “CTCTTGCCATCCTCTACCTGCTCTCTCAAACCTTTGGCATCGGAGTCACCTAGTGCAG”, the binding signal is 10100 fluorescence intensity (a.u.).

Regarding “AACATGATTGTTTTCTCTCACTGTCTTTTTAGAGCATCCACGGAGTCACCTAGTGCAG”, the binding signal is 9620 fluorescence intensity (a.u.).
